Measurements published in article PMC6948331.
These are yes or no findings as the source states them, for the method shown. Binding seen in cells or lysates may run through a third protein. Some binding calls cover weakened binding; strength is not graded here.

Target: T1, Dual-specificity phosphatase 6 (human (endogenous in human OS cells)) (UniProt Q16828)
T1 sequence: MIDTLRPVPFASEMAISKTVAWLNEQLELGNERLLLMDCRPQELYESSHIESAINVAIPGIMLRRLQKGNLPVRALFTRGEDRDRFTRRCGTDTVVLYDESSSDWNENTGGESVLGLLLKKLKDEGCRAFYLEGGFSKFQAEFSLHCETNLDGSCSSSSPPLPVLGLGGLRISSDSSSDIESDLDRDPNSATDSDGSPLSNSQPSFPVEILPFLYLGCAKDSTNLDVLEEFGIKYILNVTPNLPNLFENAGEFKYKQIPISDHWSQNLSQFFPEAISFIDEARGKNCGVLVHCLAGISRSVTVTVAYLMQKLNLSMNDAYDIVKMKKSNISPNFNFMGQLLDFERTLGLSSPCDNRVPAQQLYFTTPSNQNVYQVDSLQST
Assay: co-IP; whole-cell extracts of OS cells incubated with the appropriate antibodies plus Protein A/G beads overnight; beads washed five times; SDS-PAGE and western blot; which protein was precipitated is not told

binding: binds
B1: Tripartite Motif Containing 11 (protein, UniProt Q96F44-1 1-468)
chain: MAAPDLSTNLQEEATCAICLDYFTDPVMTDCGHNFCRECIRRCWGQPEGPYACPECRELSPQRNLRPNRPLAKMAEMARRLHPPSPVPQGVCPAHREPLAAFCGDELRLLCAACERSGEHWAHRVRPLQDAAEDLKAKLEKSLEHLRKQMQDALLFQAQADETCVLWQKMVESQRQNVLGEFERLRRLLAEEEQQLLQRLEEEELEVLPRLREGAAHLGQQSAHLAELIAELEGRCQLPALGLLQDIKDALRRVQDVKLQPPEVVPMELRTVCRVPGLVETLRRFRGDVTLDPDTANPELILSEDRRSVQRGDLRQALPDSPERFDPGPCVLGQERFTSGRHYWEVEVGDRTSWALGVCRENVNRKEKGELSAGNGFWILVFLGSYYNSSERALAPLRDPPRRVGIFLDYEAGHLSFYSATDGSLLFIFPEIPFSGTLRPLFSPLSSSPTPMTICRPKGGSGDTLAPQ
